The other results are listed elsewhere or left out.

The chains behind the UniProt entries cited, without tags or fusion partners. Where a name states a change or a piece, a line headed by the entry shows the natural chain unless it says otherwise.
UniProt Q9HC16: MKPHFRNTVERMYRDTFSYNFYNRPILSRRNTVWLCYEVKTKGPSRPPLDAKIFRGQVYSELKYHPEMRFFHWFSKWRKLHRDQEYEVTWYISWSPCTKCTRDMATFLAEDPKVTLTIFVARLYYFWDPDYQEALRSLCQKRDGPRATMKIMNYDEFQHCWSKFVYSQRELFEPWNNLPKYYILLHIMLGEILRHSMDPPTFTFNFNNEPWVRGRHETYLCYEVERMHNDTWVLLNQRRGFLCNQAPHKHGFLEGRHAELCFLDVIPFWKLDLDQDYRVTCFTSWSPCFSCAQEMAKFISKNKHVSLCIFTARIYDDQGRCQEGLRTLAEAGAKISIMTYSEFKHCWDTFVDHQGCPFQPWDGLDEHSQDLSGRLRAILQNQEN
UniProt O43299: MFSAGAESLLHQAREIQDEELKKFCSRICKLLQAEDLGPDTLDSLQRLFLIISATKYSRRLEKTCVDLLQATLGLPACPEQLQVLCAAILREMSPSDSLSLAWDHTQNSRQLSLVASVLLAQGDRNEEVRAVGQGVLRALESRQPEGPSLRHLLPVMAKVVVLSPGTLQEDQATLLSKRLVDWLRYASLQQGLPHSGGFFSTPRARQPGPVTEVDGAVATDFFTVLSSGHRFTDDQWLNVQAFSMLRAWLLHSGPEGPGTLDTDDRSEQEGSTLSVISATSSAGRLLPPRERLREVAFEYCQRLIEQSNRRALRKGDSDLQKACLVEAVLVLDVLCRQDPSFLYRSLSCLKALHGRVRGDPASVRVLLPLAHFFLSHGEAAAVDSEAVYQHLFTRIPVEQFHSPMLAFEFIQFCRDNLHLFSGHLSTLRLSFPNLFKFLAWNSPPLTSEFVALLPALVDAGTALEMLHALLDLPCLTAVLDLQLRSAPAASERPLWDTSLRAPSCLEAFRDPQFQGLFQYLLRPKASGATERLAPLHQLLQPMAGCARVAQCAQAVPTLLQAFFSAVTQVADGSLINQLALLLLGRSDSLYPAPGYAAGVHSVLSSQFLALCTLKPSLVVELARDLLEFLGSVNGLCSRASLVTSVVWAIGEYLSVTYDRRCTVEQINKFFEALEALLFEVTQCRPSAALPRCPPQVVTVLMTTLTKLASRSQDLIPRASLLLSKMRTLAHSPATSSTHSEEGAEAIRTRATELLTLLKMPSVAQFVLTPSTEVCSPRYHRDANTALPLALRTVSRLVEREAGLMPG
UniProt Q9Y4X5: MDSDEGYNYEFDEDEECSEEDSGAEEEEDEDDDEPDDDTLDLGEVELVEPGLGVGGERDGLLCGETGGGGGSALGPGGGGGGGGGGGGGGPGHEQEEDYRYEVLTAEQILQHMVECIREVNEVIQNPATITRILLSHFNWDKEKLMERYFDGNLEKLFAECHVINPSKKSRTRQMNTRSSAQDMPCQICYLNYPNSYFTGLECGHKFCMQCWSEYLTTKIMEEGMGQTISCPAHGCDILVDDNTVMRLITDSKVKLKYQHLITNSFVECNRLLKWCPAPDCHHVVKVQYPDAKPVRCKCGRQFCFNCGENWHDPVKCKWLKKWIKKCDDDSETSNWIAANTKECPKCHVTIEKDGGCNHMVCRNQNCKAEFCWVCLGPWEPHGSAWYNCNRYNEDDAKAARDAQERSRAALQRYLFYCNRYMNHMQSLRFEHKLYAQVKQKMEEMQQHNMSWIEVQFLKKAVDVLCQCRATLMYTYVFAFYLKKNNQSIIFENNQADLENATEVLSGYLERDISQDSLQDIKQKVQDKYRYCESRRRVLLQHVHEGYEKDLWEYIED
UniProt Q9Y6D5: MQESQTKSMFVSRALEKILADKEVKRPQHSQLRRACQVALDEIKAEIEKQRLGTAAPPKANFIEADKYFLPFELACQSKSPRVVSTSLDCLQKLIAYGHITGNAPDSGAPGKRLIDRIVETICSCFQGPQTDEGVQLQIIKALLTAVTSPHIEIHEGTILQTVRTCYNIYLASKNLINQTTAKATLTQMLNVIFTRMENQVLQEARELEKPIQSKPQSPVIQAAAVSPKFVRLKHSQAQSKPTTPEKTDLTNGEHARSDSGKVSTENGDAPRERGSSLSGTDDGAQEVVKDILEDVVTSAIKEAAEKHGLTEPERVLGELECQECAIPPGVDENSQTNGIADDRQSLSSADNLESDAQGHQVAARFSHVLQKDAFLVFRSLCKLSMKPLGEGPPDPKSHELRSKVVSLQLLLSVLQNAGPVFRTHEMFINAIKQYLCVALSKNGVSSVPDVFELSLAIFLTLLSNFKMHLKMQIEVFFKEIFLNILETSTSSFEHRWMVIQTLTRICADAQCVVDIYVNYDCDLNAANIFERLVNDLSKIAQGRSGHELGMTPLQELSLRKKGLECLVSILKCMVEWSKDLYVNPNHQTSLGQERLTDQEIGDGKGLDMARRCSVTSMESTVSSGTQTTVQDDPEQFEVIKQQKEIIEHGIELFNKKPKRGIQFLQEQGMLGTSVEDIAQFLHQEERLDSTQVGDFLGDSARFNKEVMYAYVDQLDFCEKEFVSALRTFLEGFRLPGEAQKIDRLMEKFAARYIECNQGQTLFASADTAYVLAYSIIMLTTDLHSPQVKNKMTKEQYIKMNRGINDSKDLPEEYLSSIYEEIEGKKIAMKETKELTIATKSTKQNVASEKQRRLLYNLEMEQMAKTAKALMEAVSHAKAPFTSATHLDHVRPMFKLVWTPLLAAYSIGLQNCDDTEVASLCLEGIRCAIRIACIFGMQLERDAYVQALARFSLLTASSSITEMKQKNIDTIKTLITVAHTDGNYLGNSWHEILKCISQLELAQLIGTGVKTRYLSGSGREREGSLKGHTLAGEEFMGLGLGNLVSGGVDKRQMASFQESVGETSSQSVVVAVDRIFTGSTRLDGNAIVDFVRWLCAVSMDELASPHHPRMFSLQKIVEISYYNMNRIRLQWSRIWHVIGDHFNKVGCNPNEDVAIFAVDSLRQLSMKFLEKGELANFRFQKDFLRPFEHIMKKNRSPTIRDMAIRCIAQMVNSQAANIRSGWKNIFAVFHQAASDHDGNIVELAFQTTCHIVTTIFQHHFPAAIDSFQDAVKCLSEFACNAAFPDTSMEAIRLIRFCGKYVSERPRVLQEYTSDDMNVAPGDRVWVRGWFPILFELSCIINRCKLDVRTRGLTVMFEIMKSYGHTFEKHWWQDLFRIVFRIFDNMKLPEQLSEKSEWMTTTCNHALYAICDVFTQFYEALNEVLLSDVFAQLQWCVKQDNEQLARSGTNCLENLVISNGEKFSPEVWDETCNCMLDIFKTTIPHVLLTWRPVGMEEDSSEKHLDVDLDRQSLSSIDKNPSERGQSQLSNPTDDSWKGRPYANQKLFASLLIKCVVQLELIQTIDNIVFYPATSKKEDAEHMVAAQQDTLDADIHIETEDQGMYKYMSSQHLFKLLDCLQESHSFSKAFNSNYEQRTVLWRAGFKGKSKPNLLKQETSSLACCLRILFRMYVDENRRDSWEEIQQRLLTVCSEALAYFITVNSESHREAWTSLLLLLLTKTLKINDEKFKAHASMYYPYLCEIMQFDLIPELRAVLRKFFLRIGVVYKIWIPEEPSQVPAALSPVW
UniProt Q8N5I2: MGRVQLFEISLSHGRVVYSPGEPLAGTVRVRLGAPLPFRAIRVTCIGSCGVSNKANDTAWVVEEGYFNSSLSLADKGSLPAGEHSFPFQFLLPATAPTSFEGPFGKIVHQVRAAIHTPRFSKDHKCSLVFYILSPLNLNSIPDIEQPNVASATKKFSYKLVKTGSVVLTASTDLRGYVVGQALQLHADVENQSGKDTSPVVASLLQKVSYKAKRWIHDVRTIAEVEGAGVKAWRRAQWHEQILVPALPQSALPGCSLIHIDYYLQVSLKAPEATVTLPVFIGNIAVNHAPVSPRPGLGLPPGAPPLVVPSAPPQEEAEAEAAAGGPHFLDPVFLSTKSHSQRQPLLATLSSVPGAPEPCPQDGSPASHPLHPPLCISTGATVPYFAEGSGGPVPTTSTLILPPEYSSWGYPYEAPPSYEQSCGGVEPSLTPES
UniProt Q9H2C2: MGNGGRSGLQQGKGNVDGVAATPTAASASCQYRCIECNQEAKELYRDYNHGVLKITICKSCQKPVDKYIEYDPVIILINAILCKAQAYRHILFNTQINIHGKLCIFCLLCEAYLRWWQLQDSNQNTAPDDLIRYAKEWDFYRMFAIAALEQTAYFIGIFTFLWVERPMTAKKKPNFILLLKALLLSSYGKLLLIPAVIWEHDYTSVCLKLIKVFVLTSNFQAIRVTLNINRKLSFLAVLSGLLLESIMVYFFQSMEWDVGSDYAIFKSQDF
UniProt Q7Z2E3: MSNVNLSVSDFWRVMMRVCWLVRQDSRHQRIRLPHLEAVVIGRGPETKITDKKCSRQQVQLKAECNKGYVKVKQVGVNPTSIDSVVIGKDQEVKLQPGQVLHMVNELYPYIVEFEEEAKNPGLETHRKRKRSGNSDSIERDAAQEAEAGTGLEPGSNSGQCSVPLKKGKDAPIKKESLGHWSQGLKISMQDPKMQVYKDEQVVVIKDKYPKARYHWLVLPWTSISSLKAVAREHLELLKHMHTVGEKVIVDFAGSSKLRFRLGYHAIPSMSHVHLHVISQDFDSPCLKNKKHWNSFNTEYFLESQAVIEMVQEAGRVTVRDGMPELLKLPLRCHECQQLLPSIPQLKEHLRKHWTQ
UniProt Q9Y587: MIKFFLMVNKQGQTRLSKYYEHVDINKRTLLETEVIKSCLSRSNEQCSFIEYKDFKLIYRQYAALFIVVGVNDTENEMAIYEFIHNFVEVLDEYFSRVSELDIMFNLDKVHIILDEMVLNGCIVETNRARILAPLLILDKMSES
UniProt Q15041, whole entry, looked up: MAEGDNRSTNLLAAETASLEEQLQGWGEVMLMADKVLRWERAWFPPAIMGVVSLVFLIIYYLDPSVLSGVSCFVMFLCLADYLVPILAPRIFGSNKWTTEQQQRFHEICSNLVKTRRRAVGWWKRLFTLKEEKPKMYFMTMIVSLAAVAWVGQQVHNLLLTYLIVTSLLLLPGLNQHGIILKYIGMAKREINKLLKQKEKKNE
UniProt Q13017, whole entry, looked up: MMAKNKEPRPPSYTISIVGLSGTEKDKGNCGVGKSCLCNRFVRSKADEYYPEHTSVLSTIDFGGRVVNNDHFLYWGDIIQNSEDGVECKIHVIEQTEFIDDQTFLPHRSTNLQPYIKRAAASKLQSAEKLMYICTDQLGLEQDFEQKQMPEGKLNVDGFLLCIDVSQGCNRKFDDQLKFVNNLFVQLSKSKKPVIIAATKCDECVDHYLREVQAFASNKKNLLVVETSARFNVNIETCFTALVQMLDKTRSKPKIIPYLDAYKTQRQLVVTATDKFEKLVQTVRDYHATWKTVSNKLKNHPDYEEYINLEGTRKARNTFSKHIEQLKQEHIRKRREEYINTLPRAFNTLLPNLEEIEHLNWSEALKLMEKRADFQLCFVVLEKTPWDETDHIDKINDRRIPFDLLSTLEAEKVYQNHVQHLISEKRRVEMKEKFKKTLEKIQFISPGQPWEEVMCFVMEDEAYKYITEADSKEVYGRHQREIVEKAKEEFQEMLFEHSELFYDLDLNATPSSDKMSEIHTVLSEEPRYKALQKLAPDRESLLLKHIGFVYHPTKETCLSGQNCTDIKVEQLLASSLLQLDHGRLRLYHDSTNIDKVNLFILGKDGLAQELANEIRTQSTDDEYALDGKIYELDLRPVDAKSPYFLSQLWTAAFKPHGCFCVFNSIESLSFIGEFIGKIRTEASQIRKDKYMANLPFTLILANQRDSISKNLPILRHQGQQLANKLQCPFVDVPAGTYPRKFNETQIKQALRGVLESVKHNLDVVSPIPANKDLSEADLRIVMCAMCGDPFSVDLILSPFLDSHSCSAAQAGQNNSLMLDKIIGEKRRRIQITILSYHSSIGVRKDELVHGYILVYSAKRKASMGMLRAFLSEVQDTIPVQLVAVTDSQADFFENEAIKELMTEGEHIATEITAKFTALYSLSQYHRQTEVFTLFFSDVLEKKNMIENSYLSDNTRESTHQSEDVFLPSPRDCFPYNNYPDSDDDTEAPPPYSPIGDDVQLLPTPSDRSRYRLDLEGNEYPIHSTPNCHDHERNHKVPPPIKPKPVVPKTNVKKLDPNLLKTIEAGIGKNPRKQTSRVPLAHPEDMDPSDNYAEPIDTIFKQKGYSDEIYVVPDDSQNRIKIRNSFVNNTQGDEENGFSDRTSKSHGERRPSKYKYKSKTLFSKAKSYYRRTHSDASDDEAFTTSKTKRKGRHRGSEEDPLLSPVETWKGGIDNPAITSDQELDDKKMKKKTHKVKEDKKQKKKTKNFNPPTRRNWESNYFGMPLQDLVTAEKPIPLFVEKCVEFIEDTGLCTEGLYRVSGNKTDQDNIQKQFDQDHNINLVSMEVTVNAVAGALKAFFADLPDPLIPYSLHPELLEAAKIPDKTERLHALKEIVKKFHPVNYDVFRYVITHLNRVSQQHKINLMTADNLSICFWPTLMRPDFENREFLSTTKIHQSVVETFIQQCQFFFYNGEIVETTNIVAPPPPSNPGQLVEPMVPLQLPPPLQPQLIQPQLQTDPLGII

Compound in the assay: Cc1cc(Nc2cc(N3CCN(C)CC3)nc(Sc3ccc(NC(=O)C4CC4)cc3)n2)n[nH]1 [tozasertib]
The assay can be described thus: log2 fold change, soluble protein after heating vs DMSO (PISA); higher = thermal stabilisation; K562 lysate, 10 uM; active = over 0.2 and 3.5 SD of the protein, either way, in both replicates (recomputed). In outline:
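The values are log-two fold changes in thermal stability compared with solvent controls and come from duplicates. They were obtained by TMTpro 16plex LC-MS/MS, with channel sums equalised, on the supernatant after 21,000xg for 90 min. That supernatant came from crude K562 extract at 1 mg/mL protein treated with 10 μM compound for 30 min, heated for 3 min across 48°C-58°C, pooled and brought to 0.5% NP-40 at 4°C.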
In the case of ASAP1 isoform 2 (UniProt Q9ULH1), the log2 fold change is inactive: -0.041.
For the target APOBEC3G (UniProt Q9HC16), the log2 fold change is inactive: -0.018.
For the target AP5Z1 (UniProt O43299), the log2 fold change was inactive: -0.022.
Take ARIH1 (UniProt Q9Y4X5): the log2 fold change was inactive: -0.017.
Take ARHGEF10 (UniProt O15013): the log2 fold change is inactive: 0.047.
As to APOOL (UniProt Q6UXV4), the log2 fold change is inactive: -0.026.
The same measure for ARFGEF2 (UniProt Q9Y6D5): inactive: -0.015; for ARRDC1 (UniProt Q8N5I2): inactive: 0.096.
As for ARID2 (UniProt Q68CP9), the log2 fold change is inactive: 0.01.
The result for ARV1 (UniProt Q9H2C2) reads inactive: -0.002; that for APTX (UniProt Q7Z2E3), inactive: 0.126; that for APIP (UniProt Q96GX9), inactive: -0.024.
The result for ARMCX3 (UniProt Q9UH62) reads inactive: 0.005; that for ARSA (UniProt P15289), inactive: 0.01.
The result for ARHGAP18 (UniProt Q8N392) reads inactive: 0.022; that for APLP2 (UniProt Q06481), inactive: 0.007.
Take AP4S1 (UniProt Q9Y587): the log2 fold change is inactive: -0.004.
The same measure for ARL6IP1 (UniProt Q15041): inactive: 0.003; for ARHGAP5 (UniProt Q13017): inactive: -0.033; for APPL1 (UniProt Q9UKG1): inactive: -0.024.
The result for ARID1B isoform 3 (UniProt Q8NFD5) reads inactive: 0.033.
For ARHGEF11 isoform 2 (UniProt O15085), the log2 fold change was inactive: -0.039.
The result for ARFGEF1 (UniProt Q9Y6D6) reads inactive: 0.002.

The record behind these values is the supplement of paper PMC10849652.
